Laboratory results taken from PubChem BioAssay AID1117319 (Southern Research Institute, 2015).
“And” between values parts separate entries of the source, which are not always exact repeats. Identical values can stand only once. In all, about 260,000 compounds went through this assay and about 1,500 (0.58%) were called active. The inconclusive results got no clear call from the source; some entries with a clear call stand among them for comparison.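 Rule for the calls: active = inhibition above a set limit at one or more doses, reproduced on every date tested; inconclusive = results disagree between test dates, or hit never tested in dose response; inactive = the rest.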

By UniProt entry, the sequences of proteins in these tests, tags left out. Where a name states a change or a piece, a line headed by the entry shows the natural chain unless it says otherwise.
UniProt P69720: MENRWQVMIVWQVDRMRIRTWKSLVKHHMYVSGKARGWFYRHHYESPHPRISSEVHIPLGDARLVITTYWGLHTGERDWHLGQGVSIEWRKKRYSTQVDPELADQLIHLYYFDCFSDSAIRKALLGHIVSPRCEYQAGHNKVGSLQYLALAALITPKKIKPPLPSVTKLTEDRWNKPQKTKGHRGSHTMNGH
UniProt P69721: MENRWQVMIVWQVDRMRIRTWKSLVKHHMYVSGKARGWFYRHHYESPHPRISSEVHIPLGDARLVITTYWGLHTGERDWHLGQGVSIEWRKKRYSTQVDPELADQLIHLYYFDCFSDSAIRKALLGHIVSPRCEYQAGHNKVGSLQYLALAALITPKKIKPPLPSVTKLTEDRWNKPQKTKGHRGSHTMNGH
UniProt P69722: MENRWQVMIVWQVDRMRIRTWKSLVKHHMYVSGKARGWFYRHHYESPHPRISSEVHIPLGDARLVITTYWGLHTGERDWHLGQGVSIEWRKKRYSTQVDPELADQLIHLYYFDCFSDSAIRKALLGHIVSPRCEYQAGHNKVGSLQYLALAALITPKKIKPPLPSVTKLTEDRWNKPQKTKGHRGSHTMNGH
UniProt P69723: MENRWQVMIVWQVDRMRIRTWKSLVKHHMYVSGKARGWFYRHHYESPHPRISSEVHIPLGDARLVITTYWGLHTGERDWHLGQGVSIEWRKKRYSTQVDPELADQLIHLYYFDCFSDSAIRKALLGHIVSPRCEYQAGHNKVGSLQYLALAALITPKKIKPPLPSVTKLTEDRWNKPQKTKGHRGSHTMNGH
UniProt Q9HC16: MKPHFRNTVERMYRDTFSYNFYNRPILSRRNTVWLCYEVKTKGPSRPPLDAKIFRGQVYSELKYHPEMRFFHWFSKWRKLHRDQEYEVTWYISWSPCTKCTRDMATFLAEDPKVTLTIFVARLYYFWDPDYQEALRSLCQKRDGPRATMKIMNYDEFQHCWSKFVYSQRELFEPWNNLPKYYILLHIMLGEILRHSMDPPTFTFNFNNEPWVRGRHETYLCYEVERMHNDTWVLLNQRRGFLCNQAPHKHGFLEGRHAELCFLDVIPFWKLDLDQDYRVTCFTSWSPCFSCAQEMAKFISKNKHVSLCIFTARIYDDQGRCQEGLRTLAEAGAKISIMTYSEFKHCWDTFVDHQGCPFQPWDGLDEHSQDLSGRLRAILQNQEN

The compounds below were run against Virion infectivity factor (Human immunodeficiency virus type 1 group M subtype B (isolate BH10)) + Virion infectivity factor (Human immunodeficiency virus type 1 group M subtype B (isolate BRU/LAI)) + Virion infectivity factor (Human immunodeficiency virus type 1 group M subtype B (isolate PCV12)) + Virion infectivity factor (Human immunodeficiency virus type 1 group M subtype B (isolate HXB2)) + DNA dC->dU-editing enzyme APOBEC-3G (Homo sapiens) (UniProt P69720+P69721+P69722+P69723+Q9HC16) (assay: inhibitors of Vif binding to APOBEC3G peptide, primary screen, biochemical, TR-FRET, GST-Vif 1-94, biotin-A3G peptide, dose response retest (AID 1117319;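 note: Vif residues 1-94 fused to GST binding biotinylated APOBEC3G peptide 110-148; 0% = full assay without inhibitor and 100% = GST in place of GST-Vif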)). Conditions: hits give high values.

Row | SMILES | inhibition
1 | COc1ccc(C)cc1NC(=O)CN1CCN(C/C=C/c2ccccc2)CC1 | inconclusive: 43.3%
2 | CN1C(=O)CSc2ccc(C(=O)O)cc21 | inconclusive: 24%
3 | O=C(CCC1CCN(C(=O)c2ccccc2Cl)CC1)NCc1ccc(F)cc1 | inconclusive: 49.3%
4 | CN1CCc2cc3c(c4c2[C@H]1[C@H](O)c1ccccc1-4)OCO3 | inactive: 9.65%
5 | CC(/C=N/NC(=O)c1ccncc1)=C\c1ccco1 | inconclusive: 41.8%
6 | CCOC(=O)c1cnc(SC)nc1NCCOC | inconclusive: 62.4%
7 | COC(=O)C1=C(C)Nc2nnnn2C1c1ccccc1Cl (stereo not drawn) | inconclusive: 37.6%
8 | CCOC(=O)N1CCC(NC(=O)c2cc3sccc3n2CC)CC1 | inconclusive: 18.3%
9 | COc1ccc(NC(=O)CSc2nc(N)c3cc4c(nc3n2)CCCC4)cc1 | inconclusive: 38.5%
10 | CN(Cc1ccccc1)C(=O)CCC(=O)N(C)Cc1ccccc1 | inactive: 0.41%
11 | N#CC1=C2SCN(Cc3ccco3)CN2C(=O)CC1c1cccc2ccccc12 (stereo not drawn) | inactive: 16%
12 | CC(=O)n1cc(N(C(=O)CCl)c2ccccc2)c2ccccc21 | inconclusive: 35.9%
13 | O=C1NC(=O)/C(=C\c2ccc(O)cc2O)S1 | inconclusive: 50%
14 | CC(C)C(C)NC(=O)CN1C(=O)NC2(CCc3ccccc32)C1=O (stereo not drawn) | inconclusive: 37%
15 | COCc1cc(C)nc(N/N=C/c2ccc(-c3ccc(C(=O)O)c(Cl)c3)o2)c1C#N | inconclusive: 40.7%
16 | CC[n+]1c(/C=C2/C=C(C)CC(C)C2)sc2ccccc21 (stereo not drawn) | inconclusive: 53.8%
17 | O=C1c2cccc3cccc(c23)C(=O)N1c1nncs1 | inconclusive: 35.1%
18 | CC(=O)N(c1ccc2oc(=O)sc2c1)S(=O)(=O)c1ccccc1 | inactive: 7.75% and inactive: 2.73%
19 | COc1ccc(/C=N/NC(=O)c2nn(-c3ccccc3)c(=O)c3c(N)scc23)cc1 | inconclusive: 54%
20 | C=CCn1c(=O)/c(=C/c2ccc(C)o2)s/c1=C(/C#N)C(=O)c1ccccc1 | inconclusive: 56%
21 | CC(C)(C)c1ccc(NC(=O)COC(=O)c2ccc([N+](=O)[O-])s2)cc1 | inconclusive: 41.4%
22 | COc1ccccc1CNc1nc2nc(C)c(C)c(=O)n2[nH]1 | inconclusive: 43.6%

Row | SMILES | inhibition
23 | CCOc1ccccc1N1CCN(c2nc(N)c(C#N)c(CC#N)c2C#N)CC1 | inconclusive: 38%
24 | O=C(CSc1nc2[nH]ncc2c(=O)[nH]1)Nc1cc(C(F)(F)F)ccc1Cl | inactive: 3.21%
25 | Cc1ccc(-c2cc(=O)c3ccccc3[nH]2)cc1 | inconclusive: 33.3%
26 | Nc1nc(CN2CCN(c3ccccn3)CC2)nc(Nc2ccc(F)cc2)n1 | inconclusive: 57.7%
27 | CC(=O)Nc1ccc(S(=O)(=O)NCCc2ccc(F)cc2)cc1 | inconclusive: 44.2%
28 | CCOC(=O)Cc1csc(NC(=O)CSc2nnc(C3CC3)n2C)n1 | inconclusive: 47.5%
29 | CC(C)(C)c1ccc(C(=S)N2CCN(c3ccccc3)CC2)cc1 | inconclusive: 36.6%
30 | COc1cc(CN2CCCC(C(=O)c3ccc4c5c(cccc35)CC4)C2)cc(OC)c1O (stereo not drawn) | inconclusive: 35.6%
31 | CCCCn1c(N)c(S(=O)(=O)c2ccc(C)cc2)c2nc3ccccc3nc21 | inconclusive: 45.4%
32 | COc1cc(-n2c(C)nc3cc(C(=O)NCc4ccco4)ccc32)cc(OC)c1OC | inconclusive: 23.5%
33 | CCCN(C(=O)c1cc2c(s1)CCC2)c1c(N)n(Cc2ccccc2)c(=O)[nH]c1=O | inconclusive: 37%
34 | COc1ccc(C2(C(=O)Nc3ccc(C)cc3)CCOCC2)cc1 | inconclusive: 64.4%
35 | Cc1cnc(C(=O)OCC(=O)N(Cc2ccccc2)C(C)(C)C)cn1 | inactive: -7.28%
36 | CCN(c1ccc(OC)cc1)S(=O)(=O)c1nnc(NC(=O)COc2ccccc2)s1 | inactive: 6.53%
37 | CCOC(=O)c1c(C)oc2c1C(=O)c1ccccc1C2=O | inactive: 6.8%
38 | CC(=O)Nc1ccc(N=Cc2ccc(OCc3ccccc3)cc2)cc1 | inactive: 21.2%
39 | COc1ccc(/C=N/N=C/c2ccc(OC)c(O)c2)cc1O | inactive: -4.01%
40 | CCOc1ccccc1NC(=S)NCC1CCCO1 (stereo not drawn) | inactive: -2.09%
41 | O=C(NC1CCCCC1)C(c1ccc(F)cc1)N(Cc1ccco1)C(=O)Cn1nnc2ccccc21 (stereo not drawn) | inconclusive: 50%
42 | COc1cccc(-n2c(SCC(=O)N3CCOCC3)nnc2-c2c[nH]c3ccccc23)c1 | inconclusive: 48.5%
43 | CC(c1ccccc1F)n1cc(C(=O)NCc2ccncc2)nn1 (stereo not drawn) | inconclusive: 35.9%
44 | Nc1cc([N+](=O)[O-])ccc1N1C(=O)CCCC1=O | inconclusive: 40.1%

Row | SMILES | inhibition
45 | COc1ccc(-c2cnc3nc[nH]c(=O)c3n2)cc1 | inconclusive: 34.6%
46 | O=C(O)c1ccc2c(c1Nc1ccccc1)C(=O)c1ccccc1C2=O | inactive: -2.59%
47 | O=C(O)CCC(=O)Nc1ccc(S(=O)(=O)Nc2nccs2)cc1 | inconclusive: 44.8%
48 | CCOC(=O)c1ccccc1NC(=O)c1cccc([N+](=O)[O-])c1 | inconclusive: 54.3%
49 | Cc1ccc(CNC(=O)CC2Sc3ccccc3NC2=O)cc1 (stereo not drawn) | inconclusive: 56.7%
50 | CC(C)(C)n1nc2c(c1NC(=O)c1ccc(S(=O)(=O)N3CCCC3)cc1)CS(=O)C2 (stereo not drawn) | inconclusive: 55.3%
51 | CN(CC(=O)NCCc1ccc(S(N)(=O)=O)cc1)Cc1ccc(Cl)cc1Cl | inactive: 4.74%
52 | Cc1ccc(CC(NC(=O)c2ccccc2)C(=O)N2CCCC2C(=O)O)cc1 (stereo not drawn) | inactive: -0.14%
53 | O=C1C=CC(=Nc2ccc3c(c2)C(=O)c2ccccc2-3)O1 | inactive: -2.81%
54 | O=C(NNc1c2ccccc2nc2ccccc12)c1cccc(O)c1 | inconclusive: 47.6%
55 | Cc1cccc(CN2CCN(C(c3ccccc3)c3ccc(Cl)cc3)CC2)c1 (stereo not drawn) | inconclusive: 33.7%
56 | CC(N=Cc1cc([N+](=O)[O-])ccc1O)c1ccccc1 (stereo not drawn) | inconclusive: 45.1%
57 | COc1ccc(NC(=O)c2cccnc2C(=O)O)c(OC)c1 | inconclusive: 70.3%
58 | C/C=C(/C)C(=O)Nc1cccc(C2=NOC3(C2)C[C@@H](C(N)=O)N(C(=O)CC(c2ccccc2)c2ccccc2)C3)c1 (stereo partly drawn) | inactive: 24%
59 | CCOC(=O)C1(Cc2cccc(OC)c2)CCN(Cc2csc(C(C)=O)c2)CC1 | inconclusive: 36.8%
60 | COC(=O)C1=C(C)Nc2nnnn2C1c1cc(OC)ccc1OC (stereo not drawn) | inactive: -7.75%
61 | N#Cc1c(NC(=S)NC(=O)Cc2cccs2)sc2c1CCCCC2 | inactive: 12.2%
62 | COC(=O)CCC(=O)OC1(C)C(=O)C=C2C=C(C3CC3)N(Cc3ccccc3)C=C2C1=O (stereo not drawn) | inconclusive: 36.6%
63 | O=[N+]([O-])c1cc2c(c(CSc3nnnn3-c3ccc(O)cc3)c1)OCOC2 | inconclusive: 38.5%
64 | O=C(c1ccccc1)[C@@H]1[C@@H](C(=O)c2ccc(F)cc2)[C@@]2(C(=O)Nc3ccccc32)[C@H]2c3ccccc3C=CN12 | inconclusive: 52.6%
65 | O=C1C(=O)c2c(ccc3ccccc23)-c2ccccc21 | inactive: -6.35%
66 | CC(C)(C)c1ccc(C(=O)N/N=C/c2ccc(OCCCF)cc2)cc1 | inactive: -1.58%

Row | SMILES | inhibition
67 | O=C(CCn1c(=O)sc2ccccc21)NCc1ccccc1 | inconclusive: 41%
68 | NNC(=O)c1cc2nc(-c3cccs3)cc(C(F)(F)F)n2n1 | inconclusive: 44.9%
69 | CC(=O)Oc1ccccc1/C=C1\CCOC1=O | inactive: 13.1%
70 | CN(C)c1ccc(/C=C/C=C2/SC(=S)N(c3ccccc3)C2=O)cc1 | inactive: 19.3%
71 | CCOc1cccc(CNc2ccc(O)cc2)c1OCc1ccc(Cl)cc1 | inconclusive: 68.3%
72 | CC(=O)Nc1ccc(S(=O)(=O)NCc2ccc(C(=O)NC(C)c3ccccc3)cc2)cc1 (stereo not drawn) | inconclusive: 38%
73 | CC(=O)N1CCC(N2CCN(c3ccccc3F)CC2)CC1 | inconclusive: 36.3%
74 | Cc1cc(C)c(C(=O)NC2CC(C)(C)Cc3c2cnn3-c2ccccc2)o1 (stereo not drawn) | inactive: 1.78%
75 | N#Cc1cc2cc3c(cc2nc1N1CCCCC1)OCCO3 | inconclusive: 43.5%
76 | CCOC(=O)c1c(C)[nH]c(C(=O)COC(=O)C(C)N2C(=O)C3CCCCC3C2=O)c1C (stereo not drawn) | inconclusive: 45.6%
77 | c1coc(C2Nc3cccc4cccc(c34)N2)c1 | inconclusive: 34.3%
78 | COc1cc(C(=O)N2CCN(C/C=C/c3ccccc3)CC2)cc(OC)c1C | inconclusive: 48.3%
79 | O=C(CCN1C(=O)/C(=C/c2cccs2)SC1=S)Nc1ccccn1 | inconclusive: 48%
80 | O=[N+]([O-])c1ccc(N2CCN(S(=O)(=O)c3ccc(Cl)c(Cl)c3)CC2)cc1NCCN1CCOCC1 | inconclusive: 33.4%
81 | O=C1NC(=Nc2ccc(O)cc2)S/C1=C/c1ccco1 | inconclusive: 48.6%
82 | CCN1CCN(c2cc(C)c3cc(NC(=S)NCCCN4CCc5ccccc5C4)ccc3n2)CC1 | inconclusive: 37%
83 | Cc1[nH]n(-c2ncc(-c3ccccc3)s2)c(=O)c1C(c1ccc(Br)cc1)C(C#N)C#N (stereo not drawn) | inconclusive: 55.3%
84 | Cc1ccnc(NC(=O)CCC(=O)N(CC(=O)NCC2CCCO2)Cc2ccc(F)cc2)c1 (stereo not drawn) | inconclusive: 37.5%
85 | CN(CCCNC(=O)Cn1cc2c(n1)CCCC2)C1CCCCC1 | inconclusive: 33.5%
86 | CCC1=NN2C(=N)/C(=C/c3c(C)nn(-c4ccccc4)c3Cl)C(=O)N=C2S1 | inactive: 6.74%
87 | Nc1nc(-c2ccccc2)[nH]c(=O)c1N | inconclusive: 39.5%
88 | CCOCCCNC(=O)c1c(C)[nH]c(C(=O)OCC)c1C | inconclusive: 35.9%
